Drawing on US20210380651A1 (SIOLTA THERAPEUTICS, published 2021), this text covers binding for one molecule.

The target of this assay is T1, mouse Fc epsilon receptor 1 a-chain (mFCER1A) protein (mouse) (UniProt P20489).
T1 sequence (looked up): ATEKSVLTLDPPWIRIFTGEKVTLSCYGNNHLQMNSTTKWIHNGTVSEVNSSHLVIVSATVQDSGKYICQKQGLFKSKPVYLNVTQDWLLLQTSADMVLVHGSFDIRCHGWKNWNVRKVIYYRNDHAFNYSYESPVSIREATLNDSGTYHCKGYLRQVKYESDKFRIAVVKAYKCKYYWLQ
As to the kind of experiment: ELISA, plates coated with increasing concentrations of mFCER1A and probed with IgE-Fc. In general terms: In an ELISA, binding on a coated surface is turned into a signal by an enzyme label.

No constants are given. Whether binding was seen depends on the method and setting. Some results given as binding are weak or reduced against the parent protein; the word gives no strength. Tags and fused reporters may be left off the sequences shown.

B1: IgE-Fc protein having the amino acid sequence set forth in SEQ ID NO: 5 (protein, not shown: small tags and cut ends)
chain: MVRSVRPVNITEPTLELLHSSCDPNAFHSTIQLYCFIYGHILNDVSVSWLMDDREITDTLAQTVLIKEEGKLASTCSKLNITEQQWMSESTFTCKVTSQGVDYLAHTRRCPDHEPRGVITYLIPPSPLDLYQNGAPKLTCLVVDLESEKNVNVTWNQEKKTSVSASQWYTKHHNNATTSITSILPVVAKDWIEGYGYQCIVDHPDFPKPIVRSITKTPGQRSAPEVYVFPPPEEESEDKRTLTCLIQNFFPEDISVQWLGDGKLISNSQHSTTTPLKSNGSNQGFFIFSRLEVAKTLWTQRKQFTCQVIHEALQKPRKLEKTISTSLGNTSLRPS
modifications: glycosylated (fully glycosylated IgE-Fc)
For the molecule B1, the binding result is “binds”.
